{"sequences": {"note": "Sequences of proteins named here, by UniProt entry; tags and fusion partners are left off. A change or cut given only in a name is not applied to a line headed by its entry.", "UniProt Q9XSM3": "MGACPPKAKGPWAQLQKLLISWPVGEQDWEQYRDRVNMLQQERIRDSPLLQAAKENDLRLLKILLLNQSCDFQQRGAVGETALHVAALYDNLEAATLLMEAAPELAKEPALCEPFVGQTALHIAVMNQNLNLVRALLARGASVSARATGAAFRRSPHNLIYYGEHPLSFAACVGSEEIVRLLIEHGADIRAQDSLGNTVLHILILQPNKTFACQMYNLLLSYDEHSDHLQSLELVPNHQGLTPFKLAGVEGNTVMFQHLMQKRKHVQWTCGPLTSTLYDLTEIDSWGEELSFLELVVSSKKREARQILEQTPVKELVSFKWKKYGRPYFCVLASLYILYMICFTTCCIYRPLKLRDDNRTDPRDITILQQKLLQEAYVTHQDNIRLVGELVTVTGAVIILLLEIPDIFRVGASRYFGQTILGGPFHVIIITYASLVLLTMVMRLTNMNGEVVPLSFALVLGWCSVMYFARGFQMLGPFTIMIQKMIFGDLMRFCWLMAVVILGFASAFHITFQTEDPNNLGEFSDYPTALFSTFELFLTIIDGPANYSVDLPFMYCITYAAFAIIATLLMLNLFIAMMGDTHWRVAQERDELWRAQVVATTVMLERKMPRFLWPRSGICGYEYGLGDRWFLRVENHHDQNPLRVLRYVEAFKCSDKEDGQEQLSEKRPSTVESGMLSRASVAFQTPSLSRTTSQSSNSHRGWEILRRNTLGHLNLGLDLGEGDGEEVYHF"}, "source": "paper PMC5951624", "about": "(Nature structural & molecular biology, 2018)", "biological_target": "TRPV5 (transient receptor potential vanilloid 5) (Oryctolagus cuniculus, UniProt Q9XSM3)", "experiment": "cell-based"}
{"smiles": "Clc1ccc(COC(Cn2ccnc2)c2ccc(Cl)cc2Cl)cc1", "note": "(stereo not shown) [ECN, econazole]", "values": [{"measurement": "IC50", "value": 2000, "unit": "nM"}]}
